Hit rate of the full screen: of about 52,000 sequences, about 210 (0.4%) were called active.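 Rule for the calls: active = gene whose silencing raises cell survival under the drug, median off-target-corrected z-score across its silencing RNAs 2 or more; inactive = the rest.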 Some of the results follow.

This experiment is described as follows: Resistance to Poly (ADP-Ribose) Polymerase inhibitor: Gene Identification via Genome-wide siRNA Screen. The following applies: mouse BRCA2 R2336H ES cells, olaparib, CellTiter-Glo viability; active compounds read high. The method in brief: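 Mouse BRCA2 R2336H ES cells were reverse-transfected with siRNA (20 nM final), treated at 48 h with 500 nM olaparib, and read by CellTiter-Glo after 72 h. Scores: MAD-based z per siRNA, median per gene, seed off-target correction.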
For the sequence GGAGACACCCGAAAUACAUTT against Adam18, the z-score is inactive: 0.694. On to GGCCAUGACAUCACAGAACTT against Eif3s5, for which the z-score is inactive: -3.17. Turning to GGAAACCAGAAAGAUCAUGTT against Phkg1, the z-score was inactive: -0.061. As to “GGCUCAAGAGAAAAGAAGGTT against 8030411F24Rik”, the z-score is inactive: 1.33. Regarding GGAAGGGUUUGUUUGUUUATT against Nkiras1, the z-score is inactive: 0.368. The value for GCCAAAGACGAUUAUCGAATT against Hook3 was inactive: -0.151. Turning to CCCUCUUCUGUAUGCAUCGTT against Olfr262, the z-score is inactive: 0.362. With GGCUACAUGAGAAGCACAGTT against Disc1, the z-score is inactive: -1.91.

For GGGACACCCUUUGAAGAUGTT against Ube2b, the z-score was inactive: 2.75. On to GGUGGACAUCUUGGACAUUTT against Amn, for which the z-score was inactive: 0.00406. In the case of “GGACAAUGUGGUAGUGGACTT against 1110012M11Rik”, the z-score is inactive: -0.946. Next, GGAGAUUGACAUCCUGCCUTT against Pdk4: inactive: 0.332; GGAGACCUGAUUCCAGGCATT against Zfa: inactive: -1.13; “GGUGCUCCACAACACCUAUTT against 2510039O18Rik”: inactive: 2.34. In the case of GGAAGAAUGCCACAAGGGATT against Irx6, the z-score was inactive: 0.32. On to GGAAGAUGAUGAUAAUGAGTT against Cdv3, for which the z-score is inactive: -0.243. With “CGAGGAUACGUUUGCAUCUTT against 2310044G17Rik”, the z-score is inactive: 0.172. Take GGUAACAAACUACAUUUGCTT against Pcdhb16: the z-score is inactive: 1.26. For the sequence GCUGUUCCUCUUUCUUUCUTT against Olfr522, the z-score was inactive: -0.0794. For GGGAUUGGGUAUUUUUUAGTT against B4galt1, the z-score was inactive: 0.972.

As to CCAUAUCCAAUAAUAGAGATT against Trip12, the z-score is inactive: 0.89. Regarding GACCAAAGCACUGACUAUGTT against Lyzs, the z-score is inactive: -0.0887.

GGAAUUAAGGUAGAGGUUATT against Ms4a11: the z-score was inactive: -1.31. As for “GGUUUCAAGACAUUGAAAGTT against 2700007P21Rik”, the z-score was inactive: -0.25. For the sequence “GGAGGACUUUCAGUUAUAUTT against 1110031I02Rik”, the z-score was inactive: 0.438. As to GCAGUUAUCAAUAAUUCCCTT against AK129375, the z-score is inactive: -1.51.

With GCAUCCUCAUCAUUCCAAATT against Cd226, the z-score was inactive: -0.217.

Turning to CGAAACCAAUCUAAAGAAGTT against Aco2, the z-score was inactive: -2.06. As for GCUGACCAUUUCCACCAGATT against Galgt2, the z-score is inactive: -1.13. In the case of GGACUUGAGAAAAAUGUUATT against Odag, the z-score was inactive: -0.385.

Take GGUGGUAUUGUUGGCUUUATT against Olfr1297: the z-score was inactive: -0.466. For CGGGAUCCUGUUUCAAGCUTT against Abr, the z-score is inactive: 0.158. For the sequence GGAUUUUUGAUGAUGUGUCTT against Arfgap1, the z-score is inactive: 1.9. The value for “GGAAACAGAACAGAUAUUUTT against 5430439G14Rik” was inactive: -1.25; that for CCGUGUGAGAUAUGAAGAATT against LOC381062 was inactive: -0.461.

As to GGCUCUGAAUCAGAAGAGUTT against Adamtsl2, the z-score was inactive: -0.847.

For GGAAUGUGUGGGUUUUCCUTT against Tmem14c, the z-score is inactive: -0.908. Consider CUUUUUCUUGCUCUUUGGATT against MOR135-11, for which the z-score is inactive: 0.215.

As to GGAAAAAGCACCAUUGUGATT against Gnao1, the z-score is inactive: -0.458. For the sequence “GCCACAUCAGAUGAAGUCCTT against B930008A12Rik”, the z-score is inactive: 2.2.

Take GCAGAGGAACAAGGCAUGUTT against Olfr345: the z-score is inactive: 0.0798. Consider GCAUCCACCUCAACGAUAUTT against Dlgh3, for which the z-score was inactive: -0.965.

In the case of CACCUCUGGUGAAAGCUAATT against Bola1, the z-score was inactive: 0.559. For the sequence GCAGCAUUGAUAAAUGGUCTT against Rab3c, the z-score was inactive: 0.0206. As for CGGAAGUAAAAAGAACUACTT against Olfr1321, the z-score is inactive: 0.727. Consider GGACGGCCUGUUUGUUAUATT against Olfr1346, for which the z-score was inactive: -0.159. On to GGCACUGGGCAAACAUUAATT against Ptprcap, for which the z-score is inactive: -1.77. Next, GCGUGCUUCUGUUUACCAUTT against Hnrpl: inactive: -0.0284; GGGCAACACCAUGGAGAUCTT against Crybb1: inactive: 0.313. As for GGAGACAUGUUCCACAGGCTT against Ngfr, the z-score is inactive: -0.0103. CGAGUGGAAAGAUUUAUAGTT against Ubxd4: the z-score is inactive: -0.419. Next, ACUCCUUCCGAGUUGUUGGTT against Vasp: inactive: 0.613; “AAUCUAUUAGGUUAGAGGATT against 9630041A04Rik”: inactive: 1.63. On to GCCAUUCUAAGCUGCCAAATT against BC025519, for which the z-score is inactive: 0.691. For the sequence GCAUGAUGCUGAGACAAGATT against Sprrl1, the z-score is inactive: -0.0479. Next, AAAGAAACUAGAGAGAGCATT against LOC434320: inactive: 0.388; GGGCUAUGUCCACAGCUUUTT against Il27: inactive: -1.11; GGAUGAGUUUCAGAACAGUTT against Ifit2: inactive: 1.68. Take “GGAGAGACCACCCUUUCAGTT against B430104H02Rik”: the z-score is inactive: 1.01.

In the case of “CCGAGAACAGUUGAAGAAGTT against D530025C17Rik”, the z-score was inactive: 0.272. In the case of GGUACUGGCAUGGUGACAATT against Mmp11, the z-score is inactive: -1.69. Turning to “GGCUGAAUAGUCCUAGCAGTT against 2010004J24Rik”, the z-score was inactive: 2.3. With “CCCUAAAUCCAAAAAGGGCTT against F730038I15Rik”, the z-score is inactive: 0.657. In the case of GGCUUCCUAAGGGAUAAGATT against Slc16a11, the z-score was inactive: -0.4. As to “CUCUGCUUUUUUCCUGUGCTT against D130007C19Rik”, the z-score was inactive: -1.26. In the case of GGAACAGAGAAGCUACUAATT against Ddx3x, the z-score is inactive: -2.93.

As to GGCAGAUCUUGCUGACAUCTT against Cml2, the z-score was inactive: -2.4. Take GGUAAAUUACCCAAAGGUATT against Mkl1: the z-score was inactive: -1.17. As for CCGGGUCAAGUUGGUCAACTT against Ascl1, the z-score was inactive: 1.49. With GGCCUUGUUAACAGAACAUTT against Sgol2, the z-score is inactive: -0.858.

For the sequence GGACCUUUAAAGCUAAGCUTT against Wisp2, the z-score was inactive: -0.199. For GGUUUUCUAGUUUGAGUUUTT against Atp1b2, the z-score is inactive: 0.538.

For GGUGAACAGAUCGCCAUCATT against Ikbkb, the z-score was inactive: -1.3. Next, CCAAUUGGAAUCCCAUUUUTT against Cd47: inactive: 1.28; GGCUUUCUUCAACCUGAGUTT against BC019755: inactive: 0.218. The value for CCCACUAUCAACACUGGUATT against Gm609 was inactive: 1.87; that for GCCAAUAGCAUCUGUGGACTT against Olfr566 was inactive: 0.361; that for CGAGUCAAGUGUGUGAACGTT against Ascl3 was inactive: 0.946.

Take GCAUGGUAGUUCUUUAGCATT against Xcr1: the z-score is inactive: -0.258. The value for GCAGCAAUCAGAUCAUGUATT against Gm1631 was inactive: 1.31; that for GGUAUAUGGCCAUUAUCGATT against Tacr3 was inactive: 0.0356. GGAAAAAGAUGGAAGAAUUTT against Thoc1: the z-score is inactive: -2.48. For “CGCGCAGAUGCACCAGAUUTT against 2610028H24Rik”, the z-score is inactive: -1.69.

Turning to CCUUUUAUCACAUUCGGAGTT against Rnf133, the z-score was inactive: 2.38. The value for “GGGUAUAAAUGCCAGUAAATT against C230050L11” was inactive: -0.464; that for “GGACCAAAGUUCUAAGUUUTT against 4933430J11” was inactive: 0.23. Take CGGUUUCUAAAAGAAUUGGTT against Syt14l: the z-score was inactive: 0.039.

Consider GGCAUUUUACCAGCGAAGCTT against Klhl5, for which the z-score is inactive: -1.28.

On to GGCAUCUGCUUUUCAGAAATT against Ube2h, for which the z-score is inactive: 0.552. Take GGAAGCAACCCAAGGAUAATT against Syt8: the z-score is inactive: -0.769. For GCUAAGCUACAUUUCCAAATT against Pycard, the z-score was inactive: 0.387. Next, GGAAGAGAUCCUAAUAAAGTT against AV216087: inactive: 0.635.

With GCUGCUUGUUAAGCUUUUUTT against Th1l, the z-score was inactive: -1.66. Consider GGAAGAGUGUAGGGCUUACTT against Htr1a, for which the z-score is inactive: 0.474. In the case of GGGACAACACUCUUUUACUTT against Nab2, the z-score is inactive: 0.278. The value for GGCCAUUGAGUGCUCCUACTT against Dhcr7 was inactive: -0.525; that for GCUGGACCUUCGAAGGUUUTT against Pltp was inactive: -0.759. As to GCGAGCAAGUGAAAACGCATT against Sumf1, the z-score was inactive: 0.87. Regarding CCAUGUUACAUGAAAUAGUTT against Bhc80, the z-score was inactive: 0.116. With GGCCGAAAGAUAAAAACAGTT against Rad51l3, the z-score was inactive: 1.08. Regarding GGAAUAACACCUCUGUCCCTT against Hspa12a, the z-score is inactive: -0.185.

For GGAAUGUGAGCUUAUCAUATT against Tlr1, the z-score is inactive: 1.66. In the case of GCUCCCAGUUCUCUUUCUUTT against Defb49, the z-score was inactive: 0.673. Turning to GGCUGCUGGUCAGUUAUGATT against Glrb, the z-score is inactive: 0.997. Next, GGAAUCGUACUUCCACUAGTT against AI854703: inactive: 2.59.

Values taken from PubChem BioAssay AID1347423 (Functional Genomics Laboratory (NCATS/FGL), 2020).
